In PMC8069728:
For at least one entry, the source does not settle the construct or the ends of the probe.

System: CA72-4 (cancer antigen 72-4, high-molecular-weight glycosylated tumor protein)
Assay: electrochemical nanopore membrane sensor (current), XPS
Conditions: aptamer on membrane, dose-dependent, detection range 4-14 U/mL, LOD 4 U/mL (no Kd); 5' Thiol Modifier C6 S-S (TCEP-reduced), immobilized on MCH-modified gold-coated PC membrane; Aptamer immobilized (10 uM, 50 uL, 37 C, 60 min) on MCH/gold-coated PC membrane, washed with 1X PBS pH 7.4; commercial protein

Sequence: CGGGGGUGCGAAGGGGGGCAGAGGUUUGACGCGAGA [CA72-4 Oligo RNA aptamer (36 nt)]
- binding result: binds
